For 42 sequences, binding signal results are on record in article PMC7819943, “Rice protein-binding microarrays: a tool to detect cis-acting elements near promoter regions in rice”.

By UniProt entry, the sequences of proteins in these tests, tags left out.
UniProt Q0JBA9, entry or part of it: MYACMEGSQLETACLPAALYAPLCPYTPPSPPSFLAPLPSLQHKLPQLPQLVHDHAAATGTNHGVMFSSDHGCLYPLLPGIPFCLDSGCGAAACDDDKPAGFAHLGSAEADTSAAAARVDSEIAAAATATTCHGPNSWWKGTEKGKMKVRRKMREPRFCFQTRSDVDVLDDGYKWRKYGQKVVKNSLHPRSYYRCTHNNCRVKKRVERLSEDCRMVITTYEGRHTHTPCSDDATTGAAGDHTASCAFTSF

This is one part of the list.

For the assay, the target named is OsWRKY34 (Oryza sativa, UniProt Q0JBA9 1-250). Nature of the assay: protein-binding microarray (RPBM); PBS, 2% BSA, 51.3 ng/ul salmon testes DNA, 50 uM zinc acetate, 200 nM TF, 25 C, 1 h; high values mean tight binding. The conditions noted are these: protein: recombinant; tags: N-terminal polyhistidine and DsRed monomer fusion (pET32a); label: CyDye5-dUTP incorporated in the synthesized complementary strand; 3' TTTTT single-stranded linker to array surface; dsDNA, one strand shown. An outline of the steps: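 Transcription factors were made in E. coli BL21-CodonPlus as N-terminal fusions to a polyhistidine tag and DsRed, then purified on Ni–NTA. After primer extension with Cy5-dUTP and blocking with 2% BSA, a custom Agilent array was exposed for 1 h at 25 °C to 200 nM protein in PBS, 2% BSA, salmon testes DNA and 50 µM zinc acetate. Washed arrays were scanned on an Axon 4000B, and the binding signal is per-feature fluorescence intensity in arbitrary units.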
As for “CATATCATGGTAGACCATTTCTTGACTACATCTTAGCTCTCGGAGTCACCTAGTGCAG”, the binding signal is 12600 fluorescence intensity (a.u.).

As to “CGCCGGAGCCGCCTCACCCTACCCGCCGCTGCCTGCTTCCCGGAGTCACCTAGTGCAG”, the binding signal was 8350 fluorescence intensity (a.u.).

Take “GGGTGAGTGTGTGTTGTGCGTTGTGAGTGTGTATGTGTTTCGGAGTCACCTAGTGCAG”: the binding signal was 17200 fluorescence intensity (a.u.).

As to “TGAATCTTCTTGTGTTGTCTTGTGCGGGTCATTCAGAAAACGGAGTCACCTAGTGCAG”, the binding signal was 11500 fluorescence intensity (a.u.).

With “GCATATCCTTCTCATTGTCTGCACATATTCTTATCAAATACGGAGTCACCTAGTGCAG”, the binding signal was 15100 fluorescence intensity (a.u.).

Consider “GTTGTTTCACCTGATCAGCTAGGTACAATTGTCTTTCTTCCGGAGTCACCTAGTGCAG”, for which the binding signal is 8800 fluorescence intensity (a.u.).

Take “CGTTCGCGTTTCGGTTTGACCGCGCGTCTCGCCTAGATTTCGGAGTCACCTAGTGCAG”: the binding signal is 8650 fluorescence intensity (a.u.).

On to “TTTCTGGGATATTCCATCTCATTACAGCACTCATTCTTTACGGAGTCACCTAGTGCAG”, for which the binding signal was 9350 fluorescence intensity (a.u.).

“GTGGCCGTGGTAGGGAGAGGTGGTGGTGCGCGCGCGGTAACGGAGTCACCTAGTGCAG”: the binding signal is 8150 fluorescence intensity (a.u.).

In the case of “TTTTTTCTGTTTTTTTCTTTCCGTATCTTTTTCAGTTTTTCGGAGTCACCTAGTGCAG”, the binding signal is 14200 fluorescence intensity (a.u.).

Regarding “TCCCATGTCACCGGCACGTACCTTTTCCTTTCCGAAATAACGGAGTCACCTAGTGCAG”, the binding signal is 8740 fluorescence intensity (a.u.).

For “GCAGTTGTCAGTGTTGGTGGCATCAAAACCCTAGTTCATCCGGAGTCACCTAGTGCAG”, the binding signal was 13100 fluorescence intensity (a.u.).

On to “AAAACTACACTGTACTTTTTTTTTCTTTTTCTTTTTTCTGCGGAGTCACCTAGTGCAG”, for which the binding signal is 10100 fluorescence intensity (a.u.).

For “GATCTCATCCGTACAAACACACAAGAATGGCTATGATTTCCGGAGTCACCTAGTGCAG”, the binding signal was 8570 fluorescence intensity (a.u.).

Consider “TTCGTATCTAACGTTTGACTGCCCGTCTTATAATAATTTTCGGAGTCACCTAGTGCAG”, for which the binding signal was 10400 fluorescence intensity (a.u.).

Consider “GGTGGCGGTGGCTGCTAGGGTTTTTTTTTTAGGAGGGGAACGGAGTCACCTAGTGCAG”, for which the binding signal was 12600 fluorescence intensity (a.u.).

On to “ATATTGTAGTAATATATTTTTAAGCTTTTTAGCTAATATTCGGAGTCACCTAGTGCAG”, for which the binding signal is 8090 fluorescence intensity (a.u.).

For the sequence “ACTTATTCCATTCAATTTCAGGTTATTTGGATGGGCTTTCCGGAGTCACCTAGTGCAG”, the binding signal was 9720 fluorescence intensity (a.u.).

“ATTCTTCTCAGAGTGTGGGTGTTTCTCGAGCTATGCATCTCGGAGTCACCTAGTGCAG”: the binding signal was 8250 fluorescence intensity (a.u.).

For the sequence “GAGTAAAAGTTTGACATGTTTCCATTTTTATCACACGTTTCGGAGTCACCTAGTGCAG”, the binding signal is 9040 fluorescence intensity (a.u.).

Consider “AAATCTTTCTCAACTCTTTCTTAAATCTCTTGTTTTCCTTCGGAGTCACCTAGTGCAG”, for which the binding signal is 10300 fluorescence intensity (a.u.).

With “GTTCATTTTATAGTCTAGCAAAATTTCCTCTCTTTTTTTTCGGAGTCACCTAGTGCAG”, the binding signal was 10700 fluorescence intensity (a.u.).

With “ATTTCCTATTCAACGGTTGCATGTTTTTTTCTTCAATTTACGGAGTCACCTAGTGCAG”, the binding signal was 13900 fluorescence intensity (a.u.).

For the sequence “TTTACCCCTACCCCACATGTCAGTGACAGAGTCTGCGGGGCGGAGTCACCTAGTGCAG”, the binding signal is 8570 fluorescence intensity (a.u.).

As to “GCGACACGACGTCATTTTCTCCCCTGCACCGGATAAACAACGGAGTCACCTAGTGCAG”, the binding signal is 8710 fluorescence intensity (a.u.).

Consider “CACACCGCTCCACTCCGCCGCTGCCCTGCTCCACTCCGTCCGGAGTCACCTAGTGCAG”, for which the binding signal is 8580 fluorescence intensity (a.u.).

Turning to “GCGCATTCCTATTAAGAGGTTTTTTACTGTCCTTCAGGTTCGGAGTCACCTAGTGCAG”, the binding signal was 8450 fluorescence intensity (a.u.).

As to “CTCAAACCGCGTCGCCATCATTTTCGATTATAATATTTCTCGGAGTCACCTAGTGCAG”, the binding signal was 11600 fluorescence intensity (a.u.).

Consider “TTGCTGTTACTCTTTTTCACTTTCGTCATGTCTTCATCTTCGGAGTCACCTAGTGCAG”, for which the binding signal was 9950 fluorescence intensity (a.u.).

For “CTTCGCCTTCGCCTCGCCGCGCCGCCGCCGTCTAGCCCTTCGGAGTCACCTAGTGCAG”, the binding signal is 9790 fluorescence intensity (a.u.).

For “ACCAAACAAGCTTCTGCTTCGTCTGCAGCCACCTGACATCCGGAGTCACCTAGTGCAG”, the binding signal was 8940 fluorescence intensity (a.u.).

As for “TACAGCGTTGGCCACGAGAGAGTTCAGTTGCTTTGTTTTTCGGAGTCACCTAGTGCAG”, the binding signal was 8120 fluorescence intensity (a.u.).

For the sequence “TTAATTTCACGGTTTCATCTCGACATCTCATCATCTGTTTCGGAGTCACCTAGTGCAG”, the binding signal is 12100 fluorescence intensity (a.u.).

As to “AGGTTTACTCACAGAAAGCGTCGGGGCGGGTCTGGGAGGGCGGAGTCACCTAGTGCAG”, the binding signal was 11800 fluorescence intensity (a.u.).

“AAATTTCCCAAAACGCGGGTGCGGTCACTATTAAATCACCCGGAGTCACCTAGTGCAG”: the binding signal was 8180 fluorescence intensity (a.u.).

Take “CCATTTATTTTATTCAAACAATTTACGTAAATTATATTATCGGAGTCACCTAGTGCAG”: the binding signal is 8070 fluorescence intensity (a.u.).

As to “GTTCGACTTTATACTTCGGGTTTTTTTTTTTTTTAGAGTTCGGAGTCACCTAGTGCAG”, the binding signal is 10200 fluorescence intensity (a.u.).

Take “ATCTTCGGTGTACTATTGGGTCATGATTTGACCCATCTAACGGAGTCACCTAGTGCAG”: the binding signal was 24900 fluorescence intensity (a.u.).

Regarding “CACCTGTCTGTCTCACATATTTTCTTGGTTCCTGTGTCTACGGAGTCACCTAGTGCAG”, the binding signal is 8330 fluorescence intensity (a.u.).

Take “CTTTAGTCTTCTGTCCTCTTTTAACTCCATATACGTAGGACGGAGTCACCTAGTGCAG”: the binding signal is 8390 fluorescence intensity (a.u.).

Take “TTGTACATTTTTTCTCTTGATGTATCTCTTTTAATACTTTCGGAGTCACCTAGTGCAG”: the binding signal is 9980 fluorescence intensity (a.u.).

As to “TATATATATATATATATATATATAAATAAATCCTTCTACACGGAGTCACCTAGTGCAG”, the binding signal was 12100 fluorescence intensity (a.u.).
